Data source: PubChem BioAssay AID1259254 (NCATS, 2017)

- Aim: 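Gene knock-downs that lead to re-replication, shown by excess G2 DNA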 (primary screen)
- Cell system: human HCT116 colorectal cancer cells
- Reagent: single siRNA against human genes
- Duration: 3 days
- Measured: 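Nuclei stained with Hoechst and imaged; cell-cycle phase assigned by DNA content; G2 share scaled per plate, non-targeting siRNA 0%, GMNN siRNA 100%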
- Reading the numbers: G2 robust z-score: higher = more G2 cells, more excess DNA replication
- Rule for the call: 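Active siRNAs have a G2 robust z of 5 or more median absolute deviations over the median, which in these data means about 38% or higher of GMNN control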
This is an unselected part of about 59,000 deposited reagents. About 1,550 of all reagents (2.6%) were called active. 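G2 share is only a proxy for re-replication; each gene was hit by three separate siRNAs, and active genes were retested.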 Not all columns of the deposit are shown. Not given: the amount of reagent.

G2 robust z-score, by target and reagent
ERVW-1: SID160739517 2.42 inactive; SID160739518 -0.426 inactive; SID160739519 0.0455 inactive
ODF2: SID160778356 -0.48 inactive; SID160778357 -0.129 inactive; SID160778358 0.46 inactive
CICP26: SID160726100 -0.83 inactive; SID160770298 -0.0145 inactive; SID160770299 1.57 inactive
DACT1: SID160740642 -0.999 inactive; SID160740643 0.29 inactive; SID160740644 -0.679 inactive
CD5: SID160732150 -0.8 inactive; SID160738363 -0.424 inactive; SID160738383 1.83 inactive
RAD23A: SID160715590 6.7 active; SID160715591 0.454 inactive; SID160715593 -1.15 inactive
FCHO2: SID160755217 -0.0138 inactive; SID160755218 -1.22 inactive; SID160755219 -0.998 inactive
GUF1: SID160747135 1.12 inactive; SID160747137 -1.57 inactive; SID160747138 -0.452 inactive
KCNIP3: SID160739523 -0.335 inactive; SID160739524 -0.835 inactive; SID160739525 -0.13 inactive
PARG: SID160720185 3.36 inactive; SID160720186 0.227 inactive; SID160720187 -0.215 inactive
SNAI2: SID160717021 4.37 inactive; SID160717022 0.228 inactive; SID160731763 1.1 inactive
TOMM40: SID160728452 -0.823 inactive; SID160728453 0.139 inactive; SID160728455 -0.701 inactive
CFAP144: SID160725399 7.27 active; SID160767816 -1.08 inactive; SID160767817 -0.865 inactive
PRR23C: SID160766112 -0.486 inactive; SID160766113 -0.516 inactive; SID160766114 -1.06 inactive
RMND1: SID160742720 -0.314 inactive; SID160742721 0.0228 inactive; SID160742722 1.94 inactive
FGF13: SID160730800 -0.66 inactive; SID160765315 0.338 inactive; SID160765326 0.107 inactive; SID160773795 -0.19 inactive; SID160773796 -0.36 inactive; SID160773797 -0.688 inactive
CLEC4E: SID160737833 -0.368 inactive; SID160737834 2.35 inactive; SID160737835 4.33 inactive
ZNF526: SID160755334 0.0734 inactive; SID160755335 0.0949 inactive; SID160755336 -0.0559 inactive
CLDN1: SID160721417 -0.141 inactive; SID160721418 1.05 inactive; SID160721419 -0.497 inactive
NUCB2: SID160778296 -0.211 inactive; SID160778297 -0.545 inactive; SID160778298 -1.16 inactive
LAPTM4A: SID160722958 -0.725 inactive; SID160722959 4.82 inactive; SID160722960 -0.322 inactive
B3GALT9: SID160767440 -0.434 inactive; SID160767441 -0.312 inactive; SID160767442 -0.977 inactive
